This is an account of results in article PMC8776094, “Reactive Oxygen Species Production Is Responsible for Antineoplastic Activity of Osmium, Ruthenium, Iridium and Rhodium Half-Sandwich Type Complexes with Bidentate Glycosyl Heterocyclic Ligands in Various Cancer Cell Models” (International Journal of Molecular Sciences, 2022).

Data set [1] has as its system A2780 ovarian cancer cells. As to the kind of experiment: SRB assay, 48 h, cytostasis, A2780. Format: cell-based. Particulars: Hill coefficient. On the procedure:
(§1) The compounds were tested between 0.001694 and 33.3333 µM, using a 4-hour-long MTT test to assess rapid toxicity and a 48-hour-long SRB assay to assess the long-term effects of the inhibition of proliferation (cytostasis). The MTT assay assesses the activity of mitochondrial complex I and detects rapid, direct toxicity, as well as indicating apoptosis and necrosis. The SRB assay measures the total protein content that is proportional to cell numbers; therefore, the assay can detect changes in cell numbers and can thus be used as a readout for cell proliferation. The SRB assay was performed after 48 h of treatment (with the exception of L428 cells, which were tested for 96 h due to their slower proliferation rate). In this setting, the SRB assay informs us of long-term changes to cell proliferation. We assessed the maximal inhibition within that concentration range, and descriptive statistics were performed. We performed a one-way ANOVA, followed by the Kruskal–Wallis test, regardless of the normal or non-normal distribution of the data. Due to the large number of significance values, the results of the significance calculations are provided in an Excel spreadsheet at https://figshare.com/s/28d14597d5041f08eb08 (accessed on 6 January 2022), among other primary data of the study. Where possible, nonlinear regression was performed on the curves to determine the IC50 values ((inhibitor) vs. response—variable slope (four parameters) method with Graphpad v8.0.1). […] In Table 5, we added the IC50 values that we determined for a set of 4 active ruthenium half-sandwich complexes we identified previously, to be used in subsequent structure-activity relationship (SAR) analyses.
A2780 cells were cultured in RMPI 1640 medium, supplemented with 10% fetal calf serum, 2 mM glutamine, and 1% penicillin-streptomycin.
(§2) The assay was performed similarly to the method used in [73]. Cells were seeded in 96-well plates the day before the assay. Cells were treated with the compounds for 48 h, with the exception of L428, where 96 h of treatment was applied. Cells were fixed with 10% trichloroacetic acid (TCA). Fixed cells were washed in distilled water 3 times, followed by staining with SRB (0.4 m/V% dissolved in 1% acetic acid) for 10 min. The stained cells were washed in 1% acetic acid 5 times; the acetic acid was removed, and the cells were left to dry. Protein-bound SRB was released by adding 100 µL 10 mM Tris base. Plates were measured in a plate photometer (Thermo Scientific Multiscan GO spectrophotometer, Waltham, MA, USA) at 540 nm. On each plate, wells were designed to contain untreated cells. In calculations, the readings for these wells were considered as 1 and all readings were expressed relative to these values.
(§3) Statistical analysis was performed using the 8.0.1 version of Graphpad Prism. Values were tested for normal distribution, using the d’Agostino and Pearson normality test. When necessary, values were log-normalized or were normalized using the Box-Cox normalization method or using a two-step transformation, as indicated in the figure captions. Nonlinear regression was performed using the built-in “[Inhibitor] vs. Response—Variable slope (four parameters), least-square fit” utility of Graphpad, yielding the IC50 and Hill slope values.
(Sulforhodamine B stains cellular protein and so reports cell mass.)

Data set [2] concerns ID8 ovarian cancer cell line. As to the kind of experiment: SRB assay, 48 h, cytostasis, ID8. The following applies: Hill coefficient. It is filed as cell-based. On the procedure: as §1
ID8 cells were cultured in a high-glucose DMEM (4.5 g/L glucose) medium, supplemented with 4% fetal calf serum, 2 mM glutamine, 1% penicillin-streptomycin, and 1% ITS supplement (I3146).
as §2, §3

For data set [3], the system named is Capan2, a pancreatic adenocarcinoma cell line. As to the kind of experiment: SRB assay, 48 h, cytostasis, Capan2. Format: cell-based. Particulars: Hill coefficient.
Description: We turned next to assessing whether the cytostatic activity of Os-3, Os-4, Os-5, Os-6 and Ir-6 complexes is specific for ovarian cancer cell lines or if they may be active on other cell lines. To that end, we tested the complexes on another carcinoma cell line (Capan2, a pancreatic adenocarcinoma cell line), on a sarcoma cell line (Saos, an osteosarcoma cell line) and on a lymphoma cell line (L428, a Hodgkin’s lymphoma cell line).
Capan2 cells were maintained in MEM, 10% fetal bovine serum, 1% penicillin/streptomycin, and 2 mM glutamine.
as §2, §3
Here, 1.5 × 10^3 Capan2, 3 × 10^3 Saos cells and 10^4 L428 cells were plated onto 96-well plates. Capan2 and Saos cells were treated with the compounds in the concentrations indicated for 48 h for an SRB assay. L428 cells were treated with the compounds in the concentrations indicated for 96 h, then cells were counted using conventional microscopy and a Burker chamber. Data are represented as average ± SD, from three biological replicates; individual assays were performed in duplicate. Values were normalized for vehicle-treated cells; the absorbance for vehicle-treated cells is equal to 1. A one-way ANOVA, followed by a Kruskal–Wallis test, was performed individually for each compound. The results of the statistical analysis are presented in an Excel spreadsheet at https://figshare.com/s/28d14597d5041f08eb08 (accessed on 6 January 2022). Nonlinear regression was performed on the data.

The test system of data set [4] is ID8 ovarian cancer cell line. Further details: method as in PMID 34638791. The following applies: SRB assay, 48 h; Hill coefficient; data previously published; cited from earlier work.
The subject of data set [5] is Capan2, a pancreatic adenocarcinoma cell line. Further details: method as in PMID 34638791. The following applies: SRB assay, 48 h; Hill coefficient; data previously published; cited from earlier work.

Read-outs that look alike come from different tables or passages of the source.

For `Cc1c(C)c(C)[c-](C)c1C.F[P-](F)(F)(F)(F)F.O=C(OCC1OC(n2cc(-c3ccccn3)nn2)C(OC(=O)c2ccccc2)C(OC(=O)c2ccccc2)C1OC(=O)c1ccccc1)c1ccccc1.[Cl][Ir+2]` (mixture of isomers) [Ir-6], the “A2780 Hill” value in data set [1] stood at 2.08 µM. For the same molecule, in data set [2], the “ID8 Hill” value was found to be 2.46 µM. The “Capan2 Hill” value in data set [3] is 1.58 µM.
As to `Cc1ccc(C(C)C)cc1.F[P-](F)(F)(F)(F)F.O=C(OCC1OC(c2nnc(-c3ccccn3)o2)C(OC(=O)c2ccccc2)C(OC(=O)c2ccccc2)C1OC(=O)c1ccccc1)c1ccccc1.[Cl][Os+]` (mixture of isomers) [Os-3], the “A2780 Hill” value in data set [1] is 1.82 µM. Also, the “ID8 Hill” value in data set [2] came to 2.39 µM. In addition, the “Capan2 Hill” value in data set [3] stood at 2.30 µM.
The matching figures for `Cc1ccc(C(C)C)cc1.F[P-](F)(F)(F)(F)F.O=C(OCC1OC(c2nnc(-c3ccccn3)o2)C(OC(=O)c2ccccc2)C(OC(=O)c2ccccc2)C1OC(=O)c1ccccc1)c1ccccc1.[Cl][Os+]` (mixture of isomers) [Os-4]: 2.52 µM, 3.69 µM and 1.85 µM.
As to `Cc1ccc(C(C)C)cc1.F[P-](F)(F)(F)(F)F.O=C(OC1COC(c2nnc(-c3ccccn3)o2)C(OC(=O)c2ccccc2)C1OC(=O)c1ccccc1)c1ccccc1.[Cl][Os+]` (mixture of isomers) [Os-5], in data set [1], the “A2780 Hill” value was found to be 1.85 µM. For the same molecule, the “ID8 Hill” value in data set [2] was found to be 2.90 µM. Also, the “Capan2 Hill” value in data set [3] stood at 2.26 µM.
As for `Cc1ccc(C(C)C)cc1.F[P-](F)(F)(F)(F)F.O=C(OCC1OC(n2cc(-c3ccccn3)nn2)C(OC(=O)c2ccccc2)C(OC(=O)c2ccccc2)C1OC(=O)c1ccccc1)c1ccccc1.[Cl][Os+]` (mixture of isomers) [Os-6], the “A2780 Hill” value in data set [1] stood at 3.01 µM. Also, the “ID8 Hill” value in data set [2] turned out to be 3.14 µM. Besides, the “Capan2 Hill” value in data set [3] is 1.33 µM.
As for `Cc1c(C)c(C)[c-](C)c1C.F[P-](F)(F)(F)(F)F.O=C(OCC1OC(n2cc(-c3ccccn3)nn2)C(OC(=O)c2ccccc2)C(OC(=O)c2ccccc2)C1OC(=O)c1ccccc1)c1ccccc1.[Cl][Rh+2]` (mixture of isomers) [Rh-6], the “A2780 Hill” value in data set [1] is given as 0.71 µM.
In the case of `Cc1ccc(C(C)C)cc1.F[P-](F)(F)(F)(F)F.O=C(OCC1OC(c2nnc(-c3ccccn3)o2)C(OC(=O)c2ccccc2)C(OC(=O)c2ccccc2)C1OC(=O)c1ccccc1)c1ccccc1.[Cl][Ru+]` (mixture of isomers) [Ru-3], the “ID8 Hill” value in data set [4] is given as 3.04 µM. The “Capan2 Hill” value in data set [5] is on record as 1.81 µM.
In the case of `Cc1ccc(C(C)C)cc1.F[P-](F)(F)(F)(F)F.O=C(OCC1OC(c2nnc(-c3ccccn3)o2)C(OC(=O)c2ccccc2)C(OC(=O)c2ccccc2)C1OC(=O)c1ccccc1)c1ccccc1.[Cl][Ru+]` (mixture of isomers) [Ru-4], the “ID8 Hill” value in data set [4] is listed as 3.31 µM. In addition, the “Capan2 Hill” value in data set [5] is listed as 1.66 µM.
Consider `Cc1ccc(C(C)C)cc1.F[P-](F)(F)(F)(F)F.O=C(OC1COC(c2nnc(-c3ccccn3)o2)C(OC(=O)c2ccccc2)C1OC(=O)c1ccccc1)c1ccccc1.[Cl][Ru+]` (mixture of isomers) [Ru-5], for which the “ID8 Hill” value in data set [4] is 3.59 µM. Moreover, in data set [5], the “Capan2 Hill” value is reported as 1.66 µM.
For `Cc1ccc(C(C)C)cc1.F[P-](F)(F)(F)(F)F.O=C(OCC1OC(n2cc(-c3ccccn3)nn2)C(OC(=O)c2ccccc2)C(OC(=O)c2ccccc2)C1OC(=O)c1ccccc1)c1ccccc1.[Cl][Ru+]` (mixture of isomers) [Ru-6], the “ID8 Hill” value in data set [4] is 2.5 µM. In addition, the “Capan2 Hill” value in data set [5] is recorded as 2.43 µM.
